Assay results taken from PubChem BioAssay AID2685 (National Center for Advancing Translational Sciences (NCATS), 2010).
This is one part of the list. The main result of the screen is listed elsewhere. These columns were measured beside it and carry no call. The list favours compounds with an active or inconclusive main result. The note in brackets gives the kind of curve behind each potency; many fits are weak.

Test: qHTS Assay for Lipid Storage Modulators in Drosophila S3 Cells;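 for cell number change: cells counted by Cell Tracker Red CMTPX staining in the red channel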
Conditions: BODIPY lipid droplet fluorescence, 18-24 h; for cell number change: measured here: cell count max response, cells fed with added oleic acid
Outline: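 Drosophila S3 cells got compounds at several concentrations plus oleic acid (400 uM solution). Laser-scanning cytometry with 488 nm excitation read lipid droplets at 500-530 nm and cells at 575-640 nm. Percent activity was relative to 20 uM Triacsin C.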

[1] = measured here: cell number channel AC50, cells fed with added oleic acid
[2] = measured here: lipid fluorescence (Fed channel) AC50, cells fed with added oleic acid

| Compound | cell number change [%] | AC50 [1] | AC50 [2] |
| --- | --- | --- | --- |
| COc1ccccc1N1CCN(C(=O)c2sc3nc(C)nc(N4CCN(c5ccccn5)CC4)c3c2C)CC1 | 20.5 | – | – |
| COC(=O)CC1C(=O)NCCN1C(=O)c1ccc(S(=O)(=O)N2CCOCC2)cc1 (configuration not stated) | -29.6 | 130 nM [falling, full curve] | 146 nM [falling, full curve] |
| CS(=O)(=O)N(CC(=O)NCCSC1CCCCC1)c1ccccc1 | 7.54 | 6510 nM [falling, single point] | – |
| O=C(/C=C/c1ccccc1Cl)N1CCOCC1 | -0.985 | – | 820 nM [rising, full curve] |
| O=C(CN(Cc1cccs1)C(=O)CNC(=O)c1ccco1)NC1CCCCC1 | 2.15 | – | 29100 nM [rising, single point] |
| Cc1ccc(-n2c(=O)[nH]c3ncccc3c2=O)cc1 | 26.7 | – | 6.51 nM [rising, full curve, poor fit] |
| Clc1ccc(Nc2ncnc3c2cnn3-c2ccccc2)cc1 | -15.1 | 164 nM [falling, partial curve, poor fit] | 6510 nM [rising, single point] |
| CN1/C(=C/c2cc[n+](C)c3ccccc23)C=Cc2ccccc21 | -49.5 | 1840 nM [falling, partial curve, poor fit] | 1840 nM [falling, partial curve] |
| Clc1ccc(-c2nnc3n2CCCS3)cc1 | -27.9 | – | 32600 nM [falling, single point] |
| CCN(CC)S(=O)(=O)c1ccc(NS(=O)(=O)c2ccc(F)cc2)cc1 | -44.9 | 29100 nM [falling, single point] | 20600 nM [falling, single point] |
| Cc1ccc2cc(CN(CC(C)C)S(=O)(=O)c3ccccc3)c(=O)[nH]c2c1 | -14.4 | – | – |
| COc1ccc(N2C(=O)N[C@@H](Cc3ccccc3)C2=O)cc1OC | 40.1 | 4610 nM [rising, full curve] | – |
| CCOC(=O)c1c(NC(=O)CC)sc(C(C)=O)c1C | -9.28 | – | 920 nM [rising, full curve] |
| CN1C(=S)SC(/[N+]([O-])=C/c2cccnc2)C1(C)C (configuration not stated) | -3.86 | – | 164 nM [falling, full curve, poor fit] |
| CCOc1cccc(-c2nn(-c3ccccc3)cc2/C=C(/C#N)C(=O)NCCCn2ccnc2)c1 | -79.3 | 20600 nM [falling, single point] | 130 nM [falling, full curve, poor fit] |
| CC(C)(C)C(=O)Nc1cc(NC(=O)C(C)(C)C)cc(C(=O)NNC(=O)c2ccncc2)c1 | 30.1 | – | 580 nM [falling, single point] |
| COC(=O)c1ccc(Cn2nnc3c(=O)[nH]c(C4CCCN(S(=O)(=O)c5ccccc5)C4)nc32)cc1 (configuration not stated) | -12.7 | – | – |
| Cc1cc(OCC(=O)NCCCN(C)C)cc(C)c1Br | – | – | 580 nM [rising, single point] |
| CCc1nccn1CCC(=O)NC1CCCc2c1cnn2-c1ccc(F)cc1F (configuration not stated) | 13 | – | 4110 nM [rising, single point] |

Some of the entries above, set out differently:
Compound	cell number change [%]	AC50 [1]	AC50 [2]
COC(=O)CC1C(=O)NCCN1C(=O)c1ccc(S(=O)(=O)N2CCOCC2)cc1 (configuration not stated)	-29.6	130 nM [falling, full curve]	146 nM [falling, full curve]
CS(=O)(=O)N(CC(=O)NCCSC1CCCCC1)c1ccccc1	7.54	6510 nM [falling, single point]	–
O=C(/C=C/c1ccccc1Cl)N1CCOCC1	-0.985	–	820 nM [rising, full curve]
O=C(CN(Cc1cccs1)C(=O)CNC(=O)c1ccco1)NC1CCCCC1	2.15	–	29100 nM [rising, single point]
Cc1ccc(-n2c(=O)[nH]c3ncccc3c2=O)cc1	26.7	–	6.51 nM [rising, full curve, poor fit]
Clc1ccc(Nc2ncnc3c2cnn3-c2ccccc2)cc1	-15.1	164 nM [falling, partial curve, poor fit]	6510 nM [rising, single point]
CN1/C(=C/c2cc[n+](C)c3ccccc23)C=Cc2ccccc21	-49.5	1840 nM [falling, partial curve, poor fit]	1840 nM [falling, partial curve]
Clc1ccc(-c2nnc3n2CCCS3)cc1	-27.9	–	32600 nM [falling, single point]
CCN(CC)S(=O)(=O)c1ccc(NS(=O)(=O)c2ccc(F)cc2)cc1	-44.9	29100 nM [falling, single point]	20600 nM [falling, single point]
Cc1ccc2cc(CN(CC(C)C)S(=O)(=O)c3ccccc3)c(=O)[nH]c2c1	-14.4	–	–
COc1ccc(N2C(=O)N[C@@H](Cc3ccccc3)C2=O)cc1OC	40.1	4610 nM [rising, full curve]	–
CCOC(=O)c1c(NC(=O)CC)sc(C(C)=O)c1C	-9.28	–	920 nM [rising, full curve]
CN1C(=S)SC(/[N+]([O-])=C/c2cccnc2)C1(C)C (configuration not stated)	-3.86	–	164 nM [falling, full curve, poor fit]
CCOc1cccc(-c2nn(-c3ccccc3)cc2/C=C(/C#N)C(=O)NCCCn2ccnc2)c1	-79.3	20600 nM [falling, single point]	130 nM [falling, full curve, poor fit]
CC(C)(C)C(=O)Nc1cc(NC(=O)C(C)(C)C)cc(C(=O)NNC(=O)c2ccncc2)c1	30.1	–	580 nM [falling, single point]
COC(=O)c1ccc(Cn2nnc3c(=O)[nH]c(C4CCCN(S(=O)(=O)c5ccccc5)C4)nc32)cc1 (configuration not stated)	-12.7	–	–
Cc1cc(OCC(=O)NCCCN(C)C)cc(C)c1Br	–	–	580 nM [rising, single point]

Further entries.

| Compound | cell number change [%] | AC50 [1] | AC50 [2] |
| --- | --- | --- | --- |
| COCc1cc(C)nc(OCC(=O)N/N=C/c2cc(C)n(-c3c(C)cccc3C)c2C)c1C#N | -15.2 | – | 10300 nM [rising, partial curve] |
| Cc1ccc(S(=O)(=O)N2CCN(c3ccc(N4CCOCC4)nn3)CC2)cc1[N+](=O)[O-] | 34 | 1640 nM [rising, full curve, poor fit] | – |
| CCOC(=O)Cc1nnc(Nc2cccc(C)c2)c2ccccc12 | – | 461 nM [rising, single point] | 1460 nM [rising, partial curve] |
| O=C(Cn1cnnn1)NCCc1ccc(Cl)cc1Cl | 10.3 | – | 29100 nM [rising, single point] |
| Cc1cc(C)nc(NS(=O)(=O)c2ccc(NC(=O)NC3CCCCC3)cc2)n1 | -32 | 1460 nM [falling, full curve, poor fit] | 5800 nM [falling, full curve] |
| COCCn1c(COc2cccc(OC)c2)nnc1SCC(=O)NC1CCCC1 | 32.2 | 1030 nM [rising, full curve, poor fit] | 8200 nM [rising, partial curve] |
| COC(=O)[C@@]1(Cc2ccc(F)cc2)[C@H]2c3cc(C(=O)N(C)C)n(Cc4ccccn4)c3C[C@H]2CN1C(=O)c1ccccc1 | -16.6 | – | 16400 nM [falling, single point] |
| Cc1ccc(C(=O)N2CCN(S(=O)(=O)c3ccccc3C#N)CC2)cc1S(=O)(=O)N1CCOCC1 | -10.4 | – | 32600 nM [rising, partial curve, poor fit] |
| C=CCNC(=S)NNc1nc2c(c(=O)[nH]1)C1(CCCC1)Cc1ccccc1-2 | -35.8 | 20600 nM [falling, single point] | 20600 nM [falling, single point] |
| O=C(NCCCNC(=O)c1ccc(-c2cccc(Cl)c2)o1)c1cnccn1 | 19.7 | 651 nM [rising, full curve, poor fit] | 35500 nM [rising, single point] |
| Cc1ccccc1C(=O)OCC(=O)NCC1COc2ccccc2O1 (configuration not stated) | -18.5 | 2910 nM [rising, single point] | – |
| O=C(/C=C/c1cccc(F)c1)Nc1nccs1 | 59 | 9200 nM [rising, partial curve] | – |
| O=C(CCC(=O)N1CCOc2ccccc21)NCCCc1ccccc1 | -2.02 | – | – |
| CCOC(=O)c1cc(C(C)=O)c(=O)n(C)c1N | -3.1 | 116 nM [falling, full curve, poor fit] | – |
| COc1ccc(C(=NNc2ccccc2C(=O)O)c2ccc(OC)cc2)cc1 | -40.4 | 29100 nM [falling, single point] | – |
| CCc1cc(C(N)=O)c(NC(=O)c2ccc(OC)cc2)s1 | 17.3 | – | 2310 nM [rising, full curve, poor fit] |
| CCc1ccc(-c2nn[nH]n2)cc1 | -27.5 | 92 nM [falling, full curve, poor fit] | 65.1 nM [falling, full curve] |
| O=C(CC1C(=O)NCCN1Cc1ccc(F)cc1Cl)NCc1ccon1 (configuration not stated) | 0.59 | – | 6510 nM [rising, partial curve, poor fit] |
| Cc1c(-n2cc(C(=O)c3cc(Br)ccc3O)cc(C#N)c2=O)c(=O)n(-c2ccccc2)n1C | – | 58 nM [falling, full curve, poor fit] | 116 nM [falling, full curve, poor fit] |

| Compound | cell number change [%] | AC50 [1] | AC50 [2] |
| --- | --- | --- | --- |
| CC1CC(C)CN(C(=O)COC(=O)CCCN2C(=O)c3cccc4cccc(c34)C2=O)C1 (configuration not stated) | -13.8 | – | 103 nM [falling, full curve, poor fit] |
| COc1ccc(C(=O)NNS(=O)(=O)c2ccc(OC)cc2)cc1 | -5.25 | – | 29100 nM [rising, single point] |
| Cn1c(CNC(=O)c2ccco2)nnc1SCC(=O)N1CCN(c2ccccc2F)CC1 | -7.62 | – | – |
| O=C(CCc1c[nH]c2ccccc12)N1CCN(c2ccc(F)cc2)CC1 | 12.6 | 631 nM [falling, full curve, poor fit] | – |
| COc1ccc(CCNC(=O)c2ccc(Cl)c(S(=O)(=O)N3CCCCCC3)c2)cc1 | -21.6 | – | 651 nM [falling, partial curve, poor fit] |
| CCCc1cc(C(=O)Nc2ccc(F)c(Cl)c2)no1 | 24.2 | – | 25900 nM [rising, single point] |
| COc1ccc(NC(=O)CN2CCC(NC(=O)C3CCCCC3)CC2)cc1 | 16.3 | – | 2060 nM [rising, full curve, poor fit] |
| CCN(Cc1ccccc1)C(=O)c1ccc(C)c(S(=O)(=O)N2CCCCC2)c1 | -21 | – | 6510 nM [falling, single point] |
| Cc1ccc(NC(=O)CN(C)C(=O)Cc2ccccc2F)cc1 | -9.21 | – | 6310 nM [falling, single point] |
| Cc1cc(NC(=O)CCC(=O)N(Cc2ccco2)C2(C(=O)NC3CCCCC3)CCN(C)CC2)no1 | -37.7 | 16400 nM [falling, single point] | 18400 nM [falling, single point] |
| CN1CC2(C)OC(=O)C(Cl)=C2CC1c1ccccc1 (configuration not stated) | -21.1 | – | 130 nM [falling, full curve, poor fit] |
| CC(=O)c1cccc(NC(=S)NC(=O)c2ccc(C)cc2)c1 | -1.34 | – | 517 nM [falling, full curve] |
| CC(C)NC(=O)CSc1ccccc1C(=O)N1CCN(S(=O)(=O)/C=C/c2ccccc2)CC1 | -0.82 | – | – |
| O=C(N/N=C/c1ccc(O)cc1)c1[nH]c2ccc(Br)cc2c1-c1ccccc1 | 4.65 | – | 116 nM [falling, full curve, poor fit] |
| CNC(=S)N/N=C/c1c(C)nn(-c2ccc(F)cc2)c1Cl | 9.54 | – | – |
| COc1ccc(CNC(=O)CSc2ccsc2[N+](=O)[O-])cc1 | 19.6 | – | – |
| N=c1ccn2c(n1)OC1C(O)C(CO)OC12 (configuration not stated) | -2.72 | – | 29100 nM [falling, single point] |
| Cc1ccc(NC(=S)N(Cc2ccc(Br)cc2)Cc2ccc(C(=O)O)cc2)cc1C | 0.323 | 1460 nM [falling, partial curve] | 1460 nM [falling, partial curve, poor fit] |
| Cc1ccc(C)c(S(=O)(=O)N2CCN(C(=O)CCNS(=O)(=O)c3ccccc3)CC2)c1 | 4.46 | 6510 nM [rising, single point] | – |
